Measured values taken from PubChem BioAssay AID540276 (National Center for Advancing Translational Sciences (NCATS), 2011).
The campaign covered roughly 300,000 compounds. About 5,400 (1.8%) were called active. The inconclusive results got no clear call from the source; some entries with a clear call stand among them for comparison. Calls come from the whole dose curve; tested in HEK293 cells. A potency beside an inconclusive call is a rough fit, not a confirmed value. Some compounds were tested as several samples or in several runs, with calls that do not always agree.

test: qHTS for inhibitors of binding or entry into cells for Marburg Virus; details: Marburg virus pseudotyped entry inhibition, cell reporter; activity change, negative = inhibition: at 37.8 µM (top of the series) unless noted
% is set by controls: 0 for no effect and ±100 for the full control effect; potency is the fitted concentration of half-maximal effect.

Structure (SMILES)	activity change, negative = inhibition	Potency
CCOC(=O)CNC(=O)C(CO)NC(=O)OCc1ccccc1 (stereo unspecified)	inactive: 19.3%	–
CCCC(=O)NC(c1ccc2c(c1)OCO2)c1cc(Cl)c2cccnc2c1O (stereo unspecified)	–	inconclusive: 22.4 µM [inhibitor, single point]
CCOc1ccc(OCC(=O)OCC(=O)NCC2CCCO2)cc1 (stereo unspecified)	–	inconclusive: 1.41 µM [inhibitor, partial curve, poor fit]
CCN1/C(=C2\C(=O)N(C)C(=S)N2C)C=Cc2ccccc21	–	inconclusive: 3.98 µM [inhibitor, single point]
NC1=C(Br)C(=O)c2ccccc2C1=O	–	inconclusive: 10 µM [inhibitor, partial curve, poor fit]
OCc1ccccc1OCCOc1ccc(Cl)c2cccnc12	inactive: 12.6%	–
COC(=O)C/C=C/[C@@H](C)[C@H](OC)c1ccccc1Br	inactive: -10.5% [at 14.2 µM]	–
COCCCN1C(=O)c2ccc(C(=O)Nc3ccccc3OC)cc2C1=O	inactive: -16.3%	–
Cc1nc(N2CCN(Cc3ccc4c(c3)OCO4)CC2)c2oc3ccccc3c2n1	–	inconclusive: 10 µM [inhibitor, partial curve, poor fit]
Cc1cc(=O)[nH]c(CCl)n1	–	inconclusive: 22.4 µM [inhibitor, single point]
N/C(=N\OC(=O)N1CCOCC1)c1ccccc1	–	inconclusive: 20.6 µM [inhibitor, single point]
COc1ccc(CNC(=O)[C@@H]2CCCN2C(=O)[C@@H]2Cc3ccccc3CN2C(=O)OC(C)(C)C)cc1	inactive: -8.07% [at 46.1 µM]	–
COCCNC(=O)C(=O)Nc1ccc2c(c1)N(S(=O)(=O)c1cccs1)CCC2	–	inconclusive: 0.355 µM [inhibitor, partial curve, poor fit]
C[C@]12N[C@H](Cc3ccccc31)c1ccccc12	–	active: 14.1 µM
O=C(NNc1ccccc1)c1ccc(Cl)c(Cl)c1	–	active: 7.08 µM
Cc1cc(NCCC(C)C)n2nc(C)c(-c3ccccc3)c2n1	–	inconclusive: 6.51 µM [activator, partial curve, poor fit]
CSC(=CC(=O)c1ccccc1)SC	inactive: 0.0165%	–
COc1cnc(-c2ccccn2)nc1Sc1ccc(Cl)cc1	–	inconclusive: 29.1 µM [inhibitor, single point]
Cc1cc(C)c2cc(C(c3nnnn3CC3CCCO3)N3CCN4CCCC4C3)c(=O)[nH]c2c1 (stereo unspecified)	–	inactive
CC(C)CC1NC(=S)N(C2CCCCC2)C1=O (stereo unspecified)	–	inconclusive: 3.55 µM [activator, single point]
COc1ccc(C(=O)N/C(=C\c2cn(S(=O)(=O)N(C)C)c3ccccc23)C(=O)NC(C)C)cc1	inactive: 16.5% [at 46.1 µM]	–
CC1CCCCC1NC(=O)COc1ccc(C#N)cc1 (stereo unspecified)	inactive: -11.3%	–
Cc1ccc(-c2cc(C(=O)N/N=C/c3ccco3)n[nH]2)s1	inactive: -2.94%	–

In the list so far, these contain an NH in an aromatic ring.
Structure (SMILES)	activity change, negative = inhibition	Potency
Cc1cc(=O)[nH]c(CCl)n1	–	inconclusive: 22.4 µM [inhibitor, single point]
Cc1cc(C)c2cc(C(c3nnnn3CC3CCCO3)N3CCN4CCCC4C3)c(=O)[nH]c2c1 (stereo unspecified)	–	inactive
Cc1ccc(-c2cc(C(=O)N/N=C/c3ccco3)n[nH]2)s1	inactive: -2.94%	–

Next part

Structure (SMILES)	activity change, negative = inhibition	Potency
CC(=O)CSc1ncnc2sc3c(c12)CCCC3	–	inconclusive: 7.08 µM [inhibitor, partial curve, poor fit]
Cc1cccc(NC(=O)c2cc(S(=O)(=O)c3ccccc3)ccc2Cl)c1	–	inconclusive: 20 µM [inhibitor, partial curve, poor fit]
CCc1ccc(Nc2nc(N)nc(CSc3nnnn3-c3ccccc3)n2)cc1	–	inconclusive: 7.94 µM [inhibitor, partial curve, poor fit]
COc1ccc(Nc2cc(Sc3ccc(OC)cc3)ncn2)cc1	–	inconclusive: 35.5 µM [inhibitor, single point]
CC(=O)Nc1c(Cl)cc2c(c1Cl)Cc1cc(C#N)ccc1-2	inactive: -19.8%	–
CCOc1ccccc1NC(=O)C(CC(C)C)NS(=O)(=O)c1ccc2c(c1)CCN2C(C)=O (stereo unspecified)	–	inconclusive: 8.91 µM [inhibitor, partial curve, poor fit]
O=C(NC1CCCCC1)c1ccccc1NC(=S)NC(=O)C1CC1	–	inconclusive: 1.41 µM [activator, full curve, poor fit]
CCOC(=O)c1ccc(N2C(=O)c3n[nH]c(-c4cccs4)c3C2c2cccc(F)c2)cc1 (stereo unspecified)	–	inconclusive: 35.5 µM [inhibitor, partial curve, poor fit]
COc1ccc(NC(=O)CCNS(=O)(=O)c2ccccc2F)cc1S(N)(=O)=O	inactive: -9.01% [at 46.1 µM]	–
CCc1ccc(CNC(=O)C2CCCN(S(=O)(=O)N(CC)c3ccccc3)C2)cc1 (stereo unspecified)	–	inconclusive: 2 µM [inhibitor, partial curve, poor fit]
Cc1ccc(N=Cc2c(O)[nH]c3ccccc23)c([N+](=O)[O-])c1	–	inconclusive: 10 µM [inhibitor, single point]
CCc1ccc(NC(=O)CC2C(=O)OCCN2CC)cc1 (stereo unspecified)	inactive: -26.8% [at 46.1 µM]	–
COC(=O)C1=CN(C(C)C)C=C(C(=O)OC)C1c1cc(Br)c(OC)c(OC)c1	–	inconclusive: 25.9 µM [inhibitor, single point]
CCOc1ccc(S(=O)(=O)N2CCCCC2)cc1NC(=O)CN1C(=O)NC(C)(c2ccccc2)C1=O (stereo unspecified)	–	inconclusive: 8.91 µM [inhibitor, partial curve, poor fit]
Cc1cc(C)c(C(=O)CC(=O)c2ccccc2Cl)c(O)c1	–	inconclusive: 22.4 µM [inhibitor, single point]
C=C(C)CCCN1C=C(C(=O)OCC)C(c2ccccc2)NC1=O (stereo unspecified)	inactive: -13.9% [at 14.2 µM]	–
O=C(Nc1nc2c(cc3c4c(cccc42)CC3)s1)c1ccccc1Cl	–	inconclusive: 5.62 µM [activator, single point]
COc1ccccc1/C=C(/C(=O)OCC(=O)Nc1ccc(N(C)C)cc1)c1ccccc1	inactive: 32.1%	–
Cc1ccc(C)c(CN2C(=O)c3ccccc3S(=O)c3ccc(C(=O)NCc4ccccc4)cc32)c1 (stereo unspecified)	–	inconclusive: 22.4 µM [inhibitor, single point]
FC(F)(F)c1cccc(C2NCc3ccccc3-n3cccc32)c1 (stereo unspecified)	–	inconclusive: 22.4 µM [inhibitor, single point]
S=c1[nH]nc(COc2ccccc2)n1/N=C/c1ccc(Br)s1	inactive: 20.8%	–
CCCn1c(N)c(C(=O)CSc2nc3ccccc3s2)c(=O)[nH]c1=O	–	inconclusive: 1.12 µM [inhibitor, full curve, poor fit]
CCN(C(=O)c1c(-c2ccccc2)noc1C)c1ccccc1	–	inconclusive: 32.6 µM [inhibitor, partial curve, poor fit]
